Consider 68 compounds from PubChem BioAssay AID662 (National Center for Advancing Translational Sciences (NCATS), 2007).

The list shows a part of the results. Shown are side measurements of this screen, not its main read-out; they come without a call. Most of these compounds were active or inconclusive in the main read-out, so they are no random draw. Words in brackets tell the shape of the fitted curve; partial curves, single points and poor fits give uncertain potencies.

A short description of the assay: Cell signaling CRE-BLA (Fsk stim). The settings on record: CHO CRE-bla reporter (cAMP response element driving beta-lactamase), forskolin EC10, beta-lactamase ratio; measured here: 460 nm blue channel. An outline of the steps:
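Modulation of forskolin-driven signalling is measured in CHO cells carrying a CRE-controlled beta-lactamase reporter. Cells are stimulated with EC10 NKH 477 in the presence of titrated compound for 3 h at 37 °C, then loaded with CCF4 for 2 h at room temperature.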
Consider `c1ccc2c(N3CCOCC3)nc(-c3ccoc3)nc2c1`, for which the AC50 is 5.01 µM [rising, partial curve].

Consider `CCOC(=O)CSc1nc2cc(C(=O)NCc3ccco3)ccc2c(=O)n1C1CCCCC1`, for which the AC50 was 1 µM [rising, single point].

For the compound `CCOCCCn1c(=N)c(C(N)=S)cc2c(=O)n3cccc(C)c3nc21`, the AC50 is 20 µM [rising, single point].

As for `CCOC(=O)c1c(NC(=O)CSc2nnnn2CC)sc(C)c1C`, the AC50 was 12.6 µM [rising, partial curve].

Consider `CCCS(=O)(=O)N1CCc2cc(OC)c(OC)cc2C1`, for which the AC50 is 25.1 µM [rising, single point].

With `COC(=O)Nc1nnc(-c2ccccc2Cl)s1`, the AC50 is 10 µM [rising, single point].

Take `CCOC(=O)c1cc2c(=O)n3ccccc3nc2n(CC2CCCO2)c1=NC(C)=O` (stereo not drawn): the AC50 was 12.6 µM [rising, partial curve].

As for `O=C(c1cc(-c2ccc(Cl)c(Cl)c2)on1)N1CCCCC1`, the AC50 is 1.26 µM [rising, full curve, poor fit].

With `COc1cc(C2C(C(=O)c3ccc(C)o3)=C(O)C(=O)N2Cc2cccnc2)ccc1O` (stereo not drawn), the AC50 was 15.8 µM [falling, partial curve].

Consider `Cn1c(=O)n(CC(=O)N2CCN(c3nnc(-c4ccccc4)c4ccccc34)CC2)c2ccccc21`, for which the AC50 is 12.6 µM [falling, single point].

Take `COc1ccc(Cl)c(Cn2c(NCc3ccco3)nc3c2c(=O)n(C)c(=O)n3C)c1`: the AC50 was 15.8 µM [rising, partial curve].

Turning to `CCOC(=O)c1sc(NC(=O)c2ccc(S(=O)(=O)N3CCOCC3)cc2)cc1C`, the AC50 was 15.8 µM [rising, partial curve].

Regarding `COc1ccc(OC)c(C2=NOC(C(=O)NCCN3CCOCC3)C2)c1` (stereo not drawn), the AC50 is 0.01 µM [falling, full curve].

As to `CC1CCCCC1NC(=O)C1Cc2ccccc2CN1S(C)(=O)=O` (stereo not drawn), the AC50 was 3.16 µM [falling, single point].

`COc1cccc(-n2nnc3c(=O)n(Cc4cccc(F)c4)cnc32)c1`: the AC50 was 10 µM [rising, partial curve].

As for `COC(=O)c1ccccc1NC(=O)COC(=O)c1ccc(C)c(NC(=O)c2ccco2)c1`, the AC50 is 7.94 µM [rising, partial curve].

As to `O=C(CSc1ncnc2nc[nH]c12)N1CCOCC1`, the AC50 was 0.00398 µM [falling, full curve, poor fit].

Take `COC(=O)CSc1nc2sc(C)c(C)c2c(=O)n1C`: the AC50 was 3.98 µM [rising, full curve].

`Cc1nc2cnc(N(C)C)nc2n(CCC#N)c1=O`: the AC50 is 10 µM [rising, partial curve].

As for `NC(=O)c1cc(-c2ccccc2)sc1NC(=O)Cc1ccc(S(=O)(=O)N2CCOCC2)s1`, the AC50 is 1 µM [rising, full curve, poor fit].

In the case of `Cc1cc(NC(=O)COC(=O)CSc2nc3cc(Cl)ccc3n2Cc2ccccc2)no1`, the AC50 is 25.1 µM [rising, single point].

Turning to `COCCn1c(=O)c(-c2cccs2)nc2cnc(Nc3ccccc3)nc21`, the AC50 was 1.58 µM [rising, full curve].

For the compound `Cc1cc(NC(=O)CCC(=O)N(C2CC2)C2(C(=O)NC3CCCC3)CCC(C)CC2)no1` (stereo not drawn), the AC50 is 25.1 µM [rising, single point].

For `CN1CCN(c2nc(-c3ccoc3)nc3ccccc23)CC1`, the AC50 was 10 µM [rising, partial curve].

For `COC(=O)CSc1nc2cc3c(cc2cc1C#N)OCO3`, the AC50 is 5.01 µM [falling, single point].

For the compound `O=C(C1CCCN(S(=O)(=O)c2cccc3cccnc23)C1)N1CCN(c2ccccc2F)CC1` (stereo not drawn), the AC50 was 3.98 µM [falling, partial curve].

For `CSc1nnc(-c2ccco2)n1-c1ccccc1`, the AC50 was 10 µM [rising, single point].

With `CCOC(=O)C1CCN(c2cc(C)nc3cc(-c4cccc(F)c4)nn23)CC1`, the AC50 was 12.6 µM [rising, partial curve].

On to `Cc1nc2ccccc2nc1OCC(=O)Nc1cc(C(F)(F)F)ccc1N1CCOCC1`, for which the AC50 was 10 µM [rising, partial curve].

In the case of `CCc1c(C(=O)NCc2ccc3c(c2)OCO3)[nH]c(C)c1C(C)=O`, the AC50 is 1 µM [falling, single point].

`Cc1c(NC(=O)c2cc(C(C)C)on2)c(=O)n(-c2ccccc2)n1C`: the AC50 is 5.01 µM [falling, partial curve, poor fit].

With `CCOC(=O)c1[nH]c(C)c(CN(CCc2ccccc2)S(C)(=O)=O)c1C`, the AC50 was 3.98 µM [rising, full curve].

For the compound `O=C(NCCc1cn2ccsc2n1)c1cccs1`, the AC50 is 12.6 µM [rising, partial curve].

As to `COc1ccc(-n2nnc3c(=O)n(CC(=O)N4CCCc5ccccc54)cnc32)cc1`, the AC50 was 15.8 µM [rising, single point].

As to `CN1CCN(c2ncc3nc(-c4cc(F)cc(F)c4)c(=O)n(C4CC4)c3n2)CC1`, the AC50 is 10 µM [rising, partial curve].

In the case of `O=c1nc2n(c3c1oc1ccccc13)Cc1ccccc1-2`, the AC50 was 5.01 µM [rising, partial curve].

Turning to `O=c1cc(CSc2nnc(COc3ccccc3Cl)o2)nc2sccn12`, the AC50 was 12.6 µM [rising, single point].

In the case of `CCC(=O)c1cc(F)c(N2CCN(S(=O)(=O)c3ccc(C)cc3)CC2)cc1C`, the AC50 is 0.501 µM [rising, full curve].

As to `CCCC/C=C/C(NC(=O)OCc1ccccc1Cl)c1ccccc1` (stereo not drawn), the AC50 was 12.6 µM [rising, single point].

As to `Cc1sc2nc3n(c(=O)c2c1C)CCCS3`, the AC50 is 12.6 µM [rising, single point].

For `O=C(Nc1ccc2nc(-c3cccs3)[nH]c2c1)c1cccs1`, the AC50 is 2.51 µM [rising, full curve].

`CC1CC(C)(C)NC(=S)S1` (stereo not drawn): the half-maximal activity concentration (AC50) was 0.0251 µM [rising, partial curve].

On to `COc1ccc(-c2nn(C)c(=O)c3ccccc23)cc1CNC(=O)c1ccco1`, for which the AC50 is 6.31 µM [rising, partial curve].

Turning to `C=CCn1c(COc2ccc(Cl)cc2)nnc1SCc1ccc(C#N)cc1`, the AC50 was 0.316 µM [rising, full curve, poor fit].

Turning to `COc1ccc(/C=N/c2nc3ccccc3n2C)cc1OC`, the AC50 is 12.6 µM [rising, partial curve].

With `N#Cc1ccc(CN2CCN(C(=O)c3ccccc3)CC2)c(Cl)c1`, the AC50 was 3.98 µM [falling, partial curve].

For `CCOC(=O)N1CCN(S(=O)(=O)c2ccc(F)c(C(=O)Nc3cc(C)cc(C)c3)c2)CC1`, the AC50 was 0.501 µM [rising, full curve, poor fit].

`CCCCOc1ccc(CC(=O)NO)cc1`: the AC50 is 1 µM [rising, partial curve].

For the compound `COc1ccccc1N(CC(=O)N1CCCCCC1)S(C)(=O)=O`, the AC50 was 0.398 µM [rising, partial curve].

Take `Oc1c(Cl)cc(Cl)cc1Sc1cc(Cl)cc(Cl)c1O`: the AC50 was 3.98 µM [falling, full curve].

In the case of `CCOC(=O)c1c(C)nc2sccn12`, the AC50 is 12.6 µM [rising, partial curve].

Take `COC(=O)c1cc(Br)ccc1-c1ccc(/C=N/n2nnnc2N)o1`: the AC50 is 3.98 µM [rising, partial curve].

On to `COc1cccc(Cn2c(=O)c(-c3ccc(F)cc3)nc3cnc(N4CCOCC4)nc32)c1`, for which the AC50 was 0.398 µM [rising, full curve].

`CCc1ccc(-c2nc(CN3CCC(C(=O)N4CCN(c5ccccc5)CC4)CC3)c(C)o2)cc1`: the AC50 was 3.98 µM [falling, full curve].

Take `O=c1c(-c2ccc(F)cc2)nc2cnc(N3CCOCC3)nc2n1Cc1ccc(F)cc1`: the AC50 is 1 µM [rising, partial curve].

As for `CCOc1ccc(-c2nnn(CC(=O)Nc3cccc(OC)c3)n2)cc1OCC`, the AC50 is 5.01 µM [rising, partial curve].

As for `COc1cccc(S(=O)(=O)NCc2ccc(C(=O)NCc3ccco3)cc2)c1`, the AC50 is 6.31 µM [falling, partial curve, poor fit].

`CCC(C)n1cnc2c(c1=O)c1nc3ccccc3nc1n2Cc1ccc2c(c1)OCO2` (stereo not drawn): the AC50 is 12.6 µM [rising, partial curve].

On to `CCOC(=O)C1CCCN(C(=O)CNS(=O)(=O)c2ccc(Br)s2)C1` (stereo not drawn), for which the AC50 is 15.8 µM [rising, single point].

Consider `CCn1nc(CC(=O)Nc2ccc(-n3cnnn3)c(C)c2)c2ccccc2c1=O`, for which the AC50 is 20 µM [rising, single point].

Consider `Cc1noc(C)c1-c1ccc2ncnc(Nc3ccccc3)c2c1`, for which the AC50 is 2.51 µM [rising, full curve, poor fit].

In the case of `Cc1cc(C)nc(N2CCC(C(=O)N3CCN(c4cc(Cl)ccc4C)CC3)CC2)n1`, the AC50 was 15.8 µM [falling, single point].

As for `O=C(COc1ncnc2ccccc12)N1CCN(C(=O)c2ccco2)CC1`, the AC50 is 3.98 µM [falling, single point].

For the compound `CCCCOC(=O)C1=C(C)Nc2ncnn2C1c1cccc(OC)c1OC` (stereo not drawn), the AC50 is 0.00398 µM [falling, full curve].

In the case of `COc1ccc(-n2c(=O)c3c4c(sc3n3cnnc23)CC(C)CC4)cc1` (stereo not drawn), the AC50 was 10 µM [rising, partial curve].

For the compound `CS(=O)(=O)Nc1cccc(-c2nc(-n3ccnc3)c3ccccc3n2)c1`, the half-maximal activity concentration (AC50) was 10 µM [rising, partial curve].

Regarding `CSc1c(C#N)c(N)c(C#N)c2c1COC(C)(C)C2`, the AC50 is 3.16 µM [rising, full curve].

For `CCN(CCCNC(=O)c1[nH]c(C)c(C(C)=O)c1C)c1cccc(C)c1`, the AC50 was 3.16 µM [rising, single point].
